The supplement of paper PMC10849652
The list shows a part of the results. Residues, ends and D or L forms follow the SMILES beside them. *: point of attachment. Cbz = O=C(OCc1ccccc1)*

Amino acid sequences for entries named in this document (tags omitted). A change or cut given only in a name is not applied to a line headed by its entry.
UniProt Q8NEW0: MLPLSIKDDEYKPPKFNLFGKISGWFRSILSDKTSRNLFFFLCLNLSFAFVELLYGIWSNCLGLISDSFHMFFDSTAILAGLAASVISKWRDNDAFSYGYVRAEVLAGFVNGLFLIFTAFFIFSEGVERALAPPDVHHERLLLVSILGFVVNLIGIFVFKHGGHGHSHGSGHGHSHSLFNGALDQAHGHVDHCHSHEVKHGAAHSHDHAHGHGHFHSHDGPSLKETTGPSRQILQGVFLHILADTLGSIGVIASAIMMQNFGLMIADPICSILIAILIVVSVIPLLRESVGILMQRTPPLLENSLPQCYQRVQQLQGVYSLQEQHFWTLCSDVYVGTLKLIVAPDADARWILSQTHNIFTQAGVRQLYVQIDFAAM
UniProt Q6XR72: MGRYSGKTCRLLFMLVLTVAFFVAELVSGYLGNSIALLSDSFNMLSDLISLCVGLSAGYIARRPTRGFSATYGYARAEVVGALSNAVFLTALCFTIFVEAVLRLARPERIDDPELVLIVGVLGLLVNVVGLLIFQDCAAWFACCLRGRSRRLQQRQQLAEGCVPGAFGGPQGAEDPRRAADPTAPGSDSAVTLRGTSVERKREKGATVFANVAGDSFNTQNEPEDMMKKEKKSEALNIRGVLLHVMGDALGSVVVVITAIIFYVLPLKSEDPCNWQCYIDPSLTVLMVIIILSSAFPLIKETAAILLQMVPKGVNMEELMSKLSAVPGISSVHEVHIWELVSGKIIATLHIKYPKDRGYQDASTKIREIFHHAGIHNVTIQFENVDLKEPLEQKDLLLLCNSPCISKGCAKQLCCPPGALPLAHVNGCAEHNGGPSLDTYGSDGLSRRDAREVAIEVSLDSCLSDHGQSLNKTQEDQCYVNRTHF
UniProt Q86VD7: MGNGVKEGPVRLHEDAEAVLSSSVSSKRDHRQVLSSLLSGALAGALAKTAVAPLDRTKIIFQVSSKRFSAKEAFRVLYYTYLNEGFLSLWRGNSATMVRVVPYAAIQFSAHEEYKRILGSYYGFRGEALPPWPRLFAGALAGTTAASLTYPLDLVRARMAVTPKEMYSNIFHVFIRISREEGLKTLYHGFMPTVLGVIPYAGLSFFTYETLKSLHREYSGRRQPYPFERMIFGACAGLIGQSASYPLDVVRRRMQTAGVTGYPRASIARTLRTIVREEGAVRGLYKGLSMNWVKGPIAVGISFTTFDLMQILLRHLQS
UniProt Q9NQQ7: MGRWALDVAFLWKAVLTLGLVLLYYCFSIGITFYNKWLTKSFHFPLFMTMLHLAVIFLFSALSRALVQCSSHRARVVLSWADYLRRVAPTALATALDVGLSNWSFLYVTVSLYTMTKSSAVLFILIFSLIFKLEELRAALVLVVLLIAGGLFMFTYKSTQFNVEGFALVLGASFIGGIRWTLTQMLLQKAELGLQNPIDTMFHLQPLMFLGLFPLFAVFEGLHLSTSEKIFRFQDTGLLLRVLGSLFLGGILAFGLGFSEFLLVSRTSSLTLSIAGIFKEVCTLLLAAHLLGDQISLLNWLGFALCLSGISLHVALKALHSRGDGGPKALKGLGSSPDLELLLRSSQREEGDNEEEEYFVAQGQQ
UniProt P04920: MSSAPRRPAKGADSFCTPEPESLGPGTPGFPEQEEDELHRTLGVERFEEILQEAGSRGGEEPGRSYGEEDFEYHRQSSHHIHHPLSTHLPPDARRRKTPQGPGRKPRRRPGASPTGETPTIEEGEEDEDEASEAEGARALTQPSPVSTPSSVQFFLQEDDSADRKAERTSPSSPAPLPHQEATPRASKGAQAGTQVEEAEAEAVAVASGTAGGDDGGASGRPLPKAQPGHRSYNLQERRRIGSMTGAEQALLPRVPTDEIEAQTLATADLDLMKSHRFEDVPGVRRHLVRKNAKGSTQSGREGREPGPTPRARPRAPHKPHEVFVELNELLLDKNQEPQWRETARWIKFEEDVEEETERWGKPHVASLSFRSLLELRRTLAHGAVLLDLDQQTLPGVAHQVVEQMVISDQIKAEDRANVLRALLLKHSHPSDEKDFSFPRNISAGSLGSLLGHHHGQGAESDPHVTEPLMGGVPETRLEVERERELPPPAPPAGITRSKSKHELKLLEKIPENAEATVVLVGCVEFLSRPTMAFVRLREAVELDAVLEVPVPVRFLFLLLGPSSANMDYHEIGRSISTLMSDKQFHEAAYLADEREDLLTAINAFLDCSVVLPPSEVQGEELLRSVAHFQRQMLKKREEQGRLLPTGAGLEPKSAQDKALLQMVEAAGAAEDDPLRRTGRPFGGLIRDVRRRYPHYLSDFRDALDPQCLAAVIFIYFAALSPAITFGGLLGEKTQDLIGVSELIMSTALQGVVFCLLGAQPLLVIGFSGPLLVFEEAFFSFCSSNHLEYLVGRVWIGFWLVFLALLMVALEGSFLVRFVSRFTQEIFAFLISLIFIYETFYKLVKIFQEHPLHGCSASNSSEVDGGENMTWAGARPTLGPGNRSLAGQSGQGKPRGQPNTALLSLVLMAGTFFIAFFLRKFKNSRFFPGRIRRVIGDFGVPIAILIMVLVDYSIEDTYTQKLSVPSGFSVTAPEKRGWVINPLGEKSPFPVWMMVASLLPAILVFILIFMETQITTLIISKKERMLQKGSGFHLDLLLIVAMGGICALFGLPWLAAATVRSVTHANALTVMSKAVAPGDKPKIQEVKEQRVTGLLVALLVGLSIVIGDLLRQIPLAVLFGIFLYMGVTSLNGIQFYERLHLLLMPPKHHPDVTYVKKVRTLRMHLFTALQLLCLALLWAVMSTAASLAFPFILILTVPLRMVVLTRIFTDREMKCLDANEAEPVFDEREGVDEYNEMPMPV
UniProt Q9C0K1: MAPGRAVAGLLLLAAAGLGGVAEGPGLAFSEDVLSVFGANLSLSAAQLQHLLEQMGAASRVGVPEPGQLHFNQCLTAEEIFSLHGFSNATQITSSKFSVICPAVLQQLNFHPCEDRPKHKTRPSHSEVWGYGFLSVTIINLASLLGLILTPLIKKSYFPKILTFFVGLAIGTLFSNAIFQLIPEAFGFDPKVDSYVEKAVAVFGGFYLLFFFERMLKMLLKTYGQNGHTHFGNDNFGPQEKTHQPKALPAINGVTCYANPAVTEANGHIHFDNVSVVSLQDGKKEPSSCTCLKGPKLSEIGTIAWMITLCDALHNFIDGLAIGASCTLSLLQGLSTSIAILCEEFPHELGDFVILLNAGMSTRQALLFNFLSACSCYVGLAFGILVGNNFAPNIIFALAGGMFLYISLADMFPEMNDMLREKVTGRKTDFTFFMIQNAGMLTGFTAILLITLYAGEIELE
UniProt Q9BV35: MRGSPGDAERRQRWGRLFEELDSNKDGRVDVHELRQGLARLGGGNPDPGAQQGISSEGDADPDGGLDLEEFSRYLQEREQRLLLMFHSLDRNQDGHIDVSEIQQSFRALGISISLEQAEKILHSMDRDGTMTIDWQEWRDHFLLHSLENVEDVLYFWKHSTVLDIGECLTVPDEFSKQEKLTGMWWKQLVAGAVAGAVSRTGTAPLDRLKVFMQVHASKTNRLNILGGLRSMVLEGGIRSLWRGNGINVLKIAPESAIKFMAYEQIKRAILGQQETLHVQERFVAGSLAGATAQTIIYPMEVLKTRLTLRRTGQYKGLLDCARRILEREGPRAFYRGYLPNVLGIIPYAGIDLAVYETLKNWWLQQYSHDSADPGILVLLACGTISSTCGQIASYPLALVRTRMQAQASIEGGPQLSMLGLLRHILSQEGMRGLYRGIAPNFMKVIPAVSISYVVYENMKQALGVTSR
UniProt Q14493, whole entry, looked up: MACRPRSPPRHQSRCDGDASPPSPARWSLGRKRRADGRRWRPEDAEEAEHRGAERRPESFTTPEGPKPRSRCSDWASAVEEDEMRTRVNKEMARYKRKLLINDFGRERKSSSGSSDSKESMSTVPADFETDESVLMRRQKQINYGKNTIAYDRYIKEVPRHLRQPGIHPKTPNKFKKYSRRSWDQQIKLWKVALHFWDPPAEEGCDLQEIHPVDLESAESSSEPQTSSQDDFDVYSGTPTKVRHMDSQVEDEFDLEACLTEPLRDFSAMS

Legend:
Test in all cases: log2 fold change, soluble protein after heating vs DMSO (PISA); higher = thermal stabilisation; K562 cells, 10 uM, 30 min; active = over 0.2 and 3.5 SD of the protein, either way, in both replicates (recomputed)
erlotinib = compound: C#Cc1cccc(Nc2ncnc3cc(OCCOC)c(OCCOC)cc23)c1 [erlotinib]
Procedure, shortened: (§1)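 K562 cells at 2×10^6 cells/mL were treated with 10 μM compound for 30 min. Aliquots were heated for 3 min across 48°C-58°C, pooled, and extracted in PBS with 0.5% NP-40 at 4°C; soluble protein was the supernatant after 21,000xg for 90 min. Soluble protein was quantified by TMTpro 16plex LC-MS/MS with channel sums equalised, and reported as log2 fold change in thermal stability against DMSO controls, with values from duplicates.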

[1] = compound: C/C(=N\NC(=O)C1=CC(=CC=C1)S(=O)(=O)N2CCOCC2)/C3=C(C=CC(=C3)Cl)O
Procedure, shortened: as §1

[2] = compound: C1=CC(=C(C=C1Cl)C2=NC3=NC=CN=C3C(=N2)NC4=CC=NC=C4)F
Procedure, shortened: as §1

[3] = compound: C1=CC(=CC=C1C2=NC3=C(N2)C=C(C=C3)C(=O)N)OC4=CC=C(C=C4)Cl
Procedure, shortened: as §1

[4] = compound: C1=CC2=C(C=CC(=C2)/C=C\3/C(=O)NC(=NCC4=CC=CS4)S3)N=C1
Procedure, shortened: as §1

[5] = compound: C1=CC2=NC=CN=C2C=C1/C=C/3\C(=O)NC(=O)S3
Procedure, shortened: as §1

[6] = compound: C1=CC=C(C=C1)C2=NC(=C(N2)C3=CC=NC=C3)C4=CC(=C(C=C4)Cl)O
Procedure, shortened: as §1

[7] = compound: C1=CC=C2C(=C1)C3=NNC4=CC=CC(=C43)C2=O
Procedure, shortened: as §1

[8] = compound: C1CCN(C1)C(=O)NC2=CC=CC(=C2)NC3=NC=C(C(=N3)NCCC4=CN=CN4)Br
Procedure, shortened: as §1

[9] = compound: C1CN(CCC1(CC2=CC=C(C=C2)Cl)N)C3=NC=NC4=C3C=CN4
Procedure, shortened: as §1

IRAK-1-4 Inhibitor I = compound: C1COCCN1CCN2C3=CC=CC=C3N=C2NC(=O)C4=CC(=CC=C4)[N+](=O)[O-] [IRAK-1-4 Inhibitor I]
Procedure, shortened: as §1

ibrutinib = compound: C=CC(=O)N1CCC[C@@H](n2nc(-c3ccc(Oc4ccccc4)cc3)c3c(N)ncnc32)C1 [ibrutinib]
Procedure, shortened: as §1

[10] = compound: CC(=O)c1cnc2ccc(-c3cc(Cl)c(O)c(Cl)c3)nc2c1N[C@H]1CC[C@H](CN(C)C)CC1
Procedure, shortened: as §1

ralimetinib = compound: CC(C)(C)Cn1c(N)nc2ccc(-c3[nH]c(C(C)(C)C)nc3-c3ccc(F)cc3)nc21 [ralimetinib]
Procedure, shortened: as §1

[11] = compound: CC(C)(O)CC(=O)NCCn1ccc2ncnc(Nc3ccc(Oc4cccc(C(F)(F)F)c4)c(Cl)c3)c21
Procedure, shortened: as §1

[12] = compound: CC(C)C1=C2N=C(C=C(N2N=C1)NCC3=CC=CC=C3)NCCCCCCN
Procedure, shortened: as §1

[13] = compound: CC(C)C[C@@H](C=O)NC(=O)[C@H](CC(C)C)NC(=O)[C@H](CC(C)C)NC(=O)OCc1ccccc1
Procedure, shortened: as §1

pinometostat = compound: CC(C)N(C[C@H]1O[C@@H](n2cnc3c(N)ncnc32)[C@H](O)[C@@H]1O)[C@H]1C[C@@H](CCc2nc3cc(C(C)(C)C)ccc3[nH]2)C1 [pinometostat]
Procedure, shortened: as §1

[14] = compound: CC1=C(C2=C(C=C1)C(=O)C3=CC=CC=C3N2CCCN)C
Procedure, shortened: as §1

[15] = compound: CC1=C(C(CC(=O)N1)C2=CC=C(C=C2)C(F)(F)F)C(=O)NC3=C(C=C4C(=C3)C=NN4)F
Procedure, shortened: as §1

| Target | log2 fold change (erlotinib) | log2 fold change [1] | log2 fold change [2] | log2 fold change [3] | log2 fold change [4] | log2 fold change [5] | log2 fold change [6] | log2 fold change [7] | log2 fold change [8] | log2 fold change [9] | log2 fold change (IRAK-1-4 Inhibitor I) | log2 fold change (ibrutinib) | log2 fold change [10] | log2 fold change (ralimetinib) | log2 fold change [11] | log2 fold change [12] | log2 fold change [13] | log2 fold change (pinometostat) | log2 fold change [14] | log2 fold change [15] |
| --- | --- | --- | --- | --- | --- | --- | --- | --- | --- | --- | --- | --- | --- | --- | --- | --- | --- | --- | --- | --- |
| SLC30A7 (UniProt Q8NEW0) | inactive: -0.004 | inactive: 0.175 | inactive: 0.062 | inactive: 0.006 | inactive: -0.086 | inactive: 0.077 | inactive: 0.109 | inactive: 0.004 | inactive: 0.016 | inactive: 0.132 | inactive: 0.035 | inactive: 0.063 | inactive: 0.032 | inactive: -0.098 | inactive: -0.075 | inactive: -0.186 | inactive: 0.011 | inactive: -0.007 | inactive: 0.06 | – |
| SLC30A10 (UniProt Q6XR72) | inactive: 0.033 | inactive: 0.068 | inactive: -0.06 | inactive: 0.001 | inactive: 0.077 | inactive: 0.008 | inactive: 0.025 | inactive: -0.003 | inactive: -0.054 | inactive: 0.115 | inactive: 0.05 | inactive: -0.08 | inactive: -0.019 | inactive: -0.014 | inactive: -0.079 | inactive: 0.035 | inactive: -0.054 | inactive: -0.032 | inactive: 0.12 | – |
| SLC25A42 (UniProt Q86VD7) | inactive: 0.08 | inactive: 0.01 | inactive: 0.089 | inactive: 0.01 | inactive: -0.032 | inactive: -0.026 | inactive: 0.079 | inactive: -0.137 | inactive: -0.086 | inactive: 0.066 | inactive: 0.034 | inactive: 0.045 | inactive: -0.002 | inactive: 0.041 | inactive: 0.015 | inactive: 0.014 | inactive: -0.037 | inactive: -0.027 | inactive: 0.077 | – |
| SLC35C2 isoform 3 (UniProt Q9NQQ7) | inactive: 0.002 | inactive: 0.012 | inactive: -0.043 | inactive: -0.167 | inactive: 0.113 | inactive: 0.116 | inactive: -0.01 | inactive: 0.002 | – | – | inactive: 0.03 | inactive: 0.029 | inactive: -0.11 | inactive: 0.04 | inactive: -0.021 | inactive: 0.016 | inactive: 0.01 | inactive: 0.086 | – | inactive: -0.05 |
| SLC4A2 (UniProt P04920) | inactive: 0.015 | inactive: 0.073 | inactive: -0.062 | inactive: 0.047 | inactive: 0.076 | inactive: 0.047 | inactive: 0.043 | inactive: -0.026 | inactive: -0.023 | inactive: 0.002 | inactive: 0.022 | inactive: -0.024 | inactive: -0.015 | inactive: 0.003 | inactive: -0.07 | inactive: -0.165 | inactive: 0.143 | inactive: 0.054 | inactive: 0.01 | – |
| SLC39A8 (UniProt Q9C0K1) | inactive: 0.022 | inactive: -0.012 | inactive: -0.069 | inactive: 0.018 | inactive: -0.012 | inactive: 0.052 | inactive: 0.03 | inactive: 0.029 | inactive: -0.007 | inactive: 0.07 | – | inactive: 0.001 | inactive: 0.004 | inactive: -0.045 | inactive: -0.069 | inactive: -0.136 | inactive: 0.002 | – | inactive: 0.037 | inactive: 0.104 |
| SLC25A23 isoform 3 (UniProt Q9BV35) | inactive: 0.059 | inactive: 0.064 | – | inactive: -0.111 | inactive: -0.049 | inactive: 0.127 | inactive: -0.074 | inactive: 0.062 | inactive: -0.049 | inactive: 0.125 | inactive: -0.078 | inactive: -0.091 | inactive: -0.062 | inactive: -0.056 | – | inactive: -0.047 | inactive: -0.058 | inactive: -0.014 | inactive: -0.08 | inactive: -0.024 |
| SLBP (UniProt Q14493) | inactive: 0.006 | inactive: 0.03 | inactive: -0.058 | inactive: 0.019 | inactive: -0.111 | inactive: 0.035 | inactive: 0.005 | inactive: 0.008 | inactive: 0.008 | inactive: -0.039 | inactive: -0.123 | inactive: -0.162 | active: -0.38 | inactive: -0.068 | inactive: -0.09 | inactive: -0.206 | inactive: 0.162 | inactive: -0.034 | inactive: -0.126 | – |

Laid out differently: results already given.
Target | log2 fold change (erlotinib) | log2 fold change [1] | log2 fold change [2] | log2 fold change [3] | log2 fold change [4] | log2 fold change [5] | log2 fold change [6] | log2 fold change [7] | log2 fold change [8] | log2 fold change [9] | log2 fold change (IRAK-1-4 Inhibitor I) | log2 fold change (ibrutinib) | log2 fold change [10] | log2 fold change (ralimetinib) | log2 fold change [11] | log2 fold change [12] | log2 fold change [13] | log2 fold change (pinometostat) | log2 fold change [14] | log2 fold change [15]
SLC35C2 isoform 3 (UniProt Q9NQQ7) | inactive: 0.002 | inactive: 0.012 | inactive: -0.043 | inactive: -0.167 | inactive: 0.113 | inactive: 0.116 | inactive: -0.01 | inactive: 0.002 | – | – | inactive: 0.03 | inactive: 0.029 | inactive: -0.11 | inactive: 0.04 | inactive: -0.021 | inactive: 0.016 | inactive: 0.01 | inactive: 0.086 | – | inactive: -0.05
SLC39A8 (UniProt Q9C0K1) | inactive: 0.022 | inactive: -0.012 | inactive: -0.069 | inactive: 0.018 | inactive: -0.012 | inactive: 0.052 | inactive: 0.03 | inactive: 0.029 | inactive: -0.007 | inactive: 0.07 | – | inactive: 0.001 | inactive: 0.004 | inactive: -0.045 | inactive: -0.069 | inactive: -0.136 | inactive: 0.002 | – | inactive: 0.037 | inactive: 0.104
